{"source": "patent US11013687B1", "about": "“Preventive and therapeutic treatment for COVID 19 and any other disease caused by SARS CoV 2” (priority 2020, dated 2021)", "tested_on": "SARS-CoV-2", "assay_type": "cell-based", "details": "5% xylitol alone", "note": "Some of these results come from one statement about several compounds together."}
{"smiles": "OC[C@@H](O)[C@H](O)[C@@H](O)CO", "note": "[xylitol, Xylitol]", "values": [{"measurement": "reduces virus titer in Vero cell cultures in vitro", "value": "at least 5000 times"}]}
